# Several values for one entry are separate records, joined by “and”; a condition that tells them apart may be missing. Equal entries are not always repeated. A unit is not stated for every read-out. Where a SMILES comes first, the peptide text is derived from it. [ ]: non-standard residue; d: D form. Hyp = O=C(O)[C@@H]1C[C@@H](O)CN1
# What was measured:
# Format in all cases: cell-based, human
# IL-8 = test: Example 9 Luminex, LPS hPBMCs: IL-8; settings: Bead IL-8
# Description: (§1) Treatment Human PBMCs were pretreated with YY-101, YDE-011 and YDE-043 or reference compound; Xiidra® at various concentration (ranging from 1 nM to 100 uM) for 2 h before stimulation. An equal volume of 0.5% DMSO was used as a vehicle control. Then, the cells were treated with LPS at 5 ug/ml. The supernatants from treated cells were harvested at 24 h and placed in a 96 well for Luminex cytokine & chemokine profiling using a Luminex 200 multiplex assay (Luminex; R&D system, USA).
# (§2) The main study arm with triplicate wells per group in a 24-well plate: • 1. Blank • 2. PBMC: 0.5% DMSO • 3. PBMC+LPS (5 ug/ml) • 4. PBMC+YY-101 100 uM • 5. PBMC+YY-101 10 uM • 6. PBMC+YY-101 1 uM • 7. PBMC+YY-101 0.1 uM • 8. PBMC+YY-101 0.01 uM • 9. PBMC+LPS (5 ug/ml)+Xiidra®100 uM • 10. PBMC+LPS (5 ug/ml)+Xiidra® 10 uM • 11. PBMC+LPS (5 ug/ml)+Xiidra® 1 uM • 12. PBMC+LPS (5 ug/ml)+Xiidra®0.1 uM • 13. PBMC+LPS (5 ug/ml)+Xiidra®0.01 uM • 14. PBMC+LPS (5 ug/ml)+Xiidra®0.001 uM • 15. PBMC+LPS (5 ug/ml)+YY-101 100 uM • 16. PBMC+LPS (5 ug/ml)+YY-101 10 uM • 17. PBMC+LPS (5 ug/ml)+YY-101 1 uM • 18. PBMC+LPS (5 ug/ml)+YY-101 0.1 uM • 19. PBMC+LPS (5 ug/ml)+YY-101 0.01 uM • 20. PBMC+LPS (5 ug/ml)+YY-101 0.001 uM • 21. PBMC+LPS (5 ug/ml)+YDE-011 100 uM • 22. PBMC+LPS (5 ug/ml)+YDE-011 10 uM • 23. PBMC+LPS (5 ug/ml)+YDE-011 1 uM • 24. PBMC+LPS (5 ug/ml)+YDE-011 0.1 uM • 25. PBMC+LPS (5 ug/ml)+YDE-011 0.01 uM • 26. PBMC+LPS (5 ug/ml)+YDE-011 0.001 uM • 27. PBMC+LPS (5 ug/ml)+YDE-043 100 uM • 28. PBMC+LPS (5 ug/ml)+YDE-043 10 uM • 29. PBMC+LPS (5 ug/ml)+YDE-043 1 uM • 30. PBMC+LPS (5 ug/ml)+YDE-043 0.1 uM • 31. PBMC+LPS (5 ug/ml)+YDE-043 0.01 uM • 32. PBMC+LPS (5 ug/ml)+YDE-043 0.001 uM
# (§3) Multiplex assay was used to measure 30 cytokines and chemokines. The 1:2, 1:10 and 1:200 diluted cell supernatant and serial dilution of the standard were dispensed into a 96 well plate at 50 ul/well. Then, the pre-mixed cocktail of antibody-coated magnetic beads was dispensed at 50 ul/well and incubated at room temperature for 2 h in a horizontal orbital microplate shaker at 800±500 rpm. The beads were washed using a magnetic device to prevent loss. The biotin-antibody was dispensed in 50 ul of each well and incubated at room temperature for 1 h in a shaker at 800±500 rpm. After washing, streptavidin-PE was added at 50 ul/well and incubated at room temperature for 30 min in a shaker under the same conditions. Finally, after washing, wash buffer (100 ul/well) was added to the plate and incubated in a shaker for 2 min. The Luminex™ 200 setting were set according to the manufacturer's protocol. The data was calculated with a standard five-parameter logistic nonlinear regression analysis of the data (xPonent software 4.2, USA). The levels of cytokine/chemokine are normalized to the live cell counts (1×10^5 cells/mL) and presented as concentrations per mL (pg/mL or ng/mL).
# CCL3/MIP-1 alpha = test: Example 9 Luminex, LPS hPBMCs: CCL3/MIP-1 alpha
# Description: as §1, §2, §3
# MMP-9 = test: Example 9 Luminex, LPS hPBMCs: MMP-9
# Description: as §1, §2, §3
# [1] = PBMC + LPS(5 ug/ml) + test article 0.001 uM, Mean
# [2] = PBMC + LPS(5 ug/ml) + test article 0.01 uM, Mean
# [3] = PBMC + LPS(5 ug/ml) + test article 0.1 uM, Mean
# [4] = PBMC + LPS(5 ug/ml) + test article 1 uM, Mean
# [5] = PBMC + LPS(5 ug/ml) + test article 10 uM, Mean
# [6] = PBMC + LPS(5 ug/ml) + test article 100 uM, Mean
# [7] = PBMC + test article 0.01 uM, no LPS, Mean
# [8] = PBMC + test article 0.1 uM, no LPS, Mean
# [9] = PBMC + test article 1 uM, no LPS, Mean
# [10] = PBMC + test article 10 uM, no LPS, Mean
# [11] = PBMC + test article 100 uM, no LPS, Mean
smiles,measurement,setting,value
CC(C)C[C@H](NC(=O)CNC(=O)[C@H](CC(=O)O)NC(=O)[C@H](CCC(N)=O)NC(=O)CNC(=O)[C@@H]1C[C@@H](O)CN1)C(=O)N[C@@H](C)C(=O)NCC(=O)N1CCC[C@H]1C(=O)N[C@@H](CCCCN)C(=O)O [YY-101] (H-[Hyp]GQDGLAGPK-OH; N-terminus and C-terminus assumed),MFI,IL-8; [1],1540.7
same,MFI,"IL-8; PBMC + LPS(5 ug/ml) + test article 0.001 uM, single replicates (1st, 2nd, 3rd)",1479.5 and 1465.5 and 1677.0
same,MFI,IL-8; [2],1489.0
same,MFI,"IL-8; PBMC + LPS(5 ug/ml) + test article 0.01 uM, single replicates (1st, 2nd, 3rd)",1486.0 and 1465.5 and 1515.5
same,MFI,IL-8; [3],1373.5
same,MFI,"IL-8; PBMC + LPS(5 ug/ml) + test article 0.1 uM, single replicates (1st, 2nd, 3rd)",1353.5 and 1407.5 and 1359.5
same,MFI,IL-8; [4],1505.0
same,MFI,"IL-8; PBMC + LPS(5 ug/ml) + test article 1 uM, single replicates (1st, 2nd, 3rd)",1476.5 and 1478.5 and 1560.0
same,MFI,IL-8; [5],1522.5
same,MFI,"IL-8; PBMC + LPS(5 ug/ml) + test article 10 uM, single replicates (1st, 2nd, 3rd)",1511.5 and 1649.0 and 1407.0
same,MFI,IL-8; [6],1517.2
same,MFI,"IL-8; PBMC + LPS(5 ug/ml) + test article 100 uM, single replicates (1st, 2nd, 3rd)",1574.5 and 1532.5 and 1444.5
same,MFI,IL-8; [7],162.8
same,MFI,"IL-8; PBMC + test article 0.01 uM, no LPS, single replicates (1st, 2nd)",95.5 and 230.0
same,MFI,IL-8; [8],147.8
same,MFI,"IL-8; PBMC + test article 0.1 uM, no LPS, single replicates (1st, 2nd)",90.0 and 205.5
same,MFI,IL-8; [9],153.5
same,MFI,"IL-8; PBMC + test article 1 uM, no LPS, single replicates (1st, 2nd)",149.5 and 157.5
same,MFI,IL-8; [10],697.0
same,MFI,"IL-8; PBMC + test article 10 uM, no LPS, single replicates (1st, 2nd)",1227.5 and 166.5
same,MFI,IL-8; [11],511.5
same,MFI,"IL-8; PBMC + test article 100 uM, no LPS, single replicates (1st, 2nd)",664.5 and 358.5
same,MFI,CCL3/MIP-1 alpha; [1],1954.8
same,MFI,"CCL3/MIP-1 alpha; PBMC + LPS(5 ug/ml) + test article 0.001 uM, individual replicates",2104.5 and 1995.5 and 1764.5
same,MFI,CCL3/MIP-1 alpha; [2],2237.7
same,MFI,"CCL3/MIP-1 alpha; PBMC + LPS(5 ug/ml) + test article 0.01 uM, individual replicates",2293.5 and 2303.0 and 2116.5
same,MFI,CCL3/MIP-1 alpha; [3],2170.3
same,MFI,"CCL3/MIP-1 alpha; PBMC + LPS(5 ug/ml) + test article 0.1 uM, individual replicates",2157.0 and 2199.5 and 2154.5
same,MFI,CCL3/MIP-1 alpha; [4],2115.0
same,MFI,"CCL3/MIP-1 alpha; PBMC + LPS(5 ug/ml) + test article 1 uM, individual replicates",2206.5 and 2029.0 and 2109.5
same,MFI,CCL3/MIP-1 alpha; [5],2386.2
same,MFI,"CCL3/MIP-1 alpha; PBMC + LPS(5 ug/ml) + test article 10 uM, individual replicates",2406.5 and 2501.0 and 2251.0
same,MFI,CCL3/MIP-1 alpha; [6],2879.0
same,MFI,"CCL3/MIP-1 alpha; PBMC + LPS(5 ug/ml) + test article 100 uM, individual replicates",3190.5 and 2648.5 and 2798.0
same,MFI,CCL3/MIP-1 alpha; [7],−0.3
same,MFI,"CCL3/MIP-1 alpha; PBMC + test article 0.01 uM, no LPS, individual replicates",0.5 and −1.0
same,MFI,CCL3/MIP-1 alpha; [8],−0.5
same,MFI,"CCL3/MIP-1 alpha; PBMC + test article 0.1 uM, no LPS, individual replicates",−0.5
same,MFI,CCL3/MIP-1 alpha; [9],1.0
same,MFI,"CCL3/MIP-1 alpha; PBMC + test article 1 uM, no LPS, individual replicates",1.5 and 0.5
same,MFI,CCL3/MIP-1 alpha; [10],3.5
same,MFI,"CCL3/MIP-1 alpha; PBMC + test article 10 uM, no LPS, individual replicates",7.5 and −0.5
same,MFI,CCL3/MIP-1 alpha; [11],1.0
same,MFI,"CCL3/MIP-1 alpha; PBMC + test article 100 uM, no LPS, individual replicates",2.5 and −0.5
same,MMP-9 MFI,"MMP-9; PBMC + 0.01 uM, no LPS, Mean",1510.3
same,MMP-9 MFI,"MMP-9; PBMC + 0.01 uM, no LPS, single replicates",1408.5 and 1612.0
same,MMP-9 MFI,"MMP-9; PBMC + 0.1 uM, no LPS, Mean",1525.5
same,MMP-9 MFI,"MMP-9; PBMC + 0.1 uM, no LPS, single replicates",1206.5 and 1844.5
same,MMP-9 MFI,"MMP-9; PBMC + 1 uM, no LPS, Mean",1525.0
same,MMP-9 MFI,"MMP-9; PBMC + 1 uM, no LPS, single replicates",1451.5 and 1598.5
same,MMP-9 MFI,"MMP-9; PBMC + 10 uM, no LPS, Mean",2205.8
same,MMP-9 MFI,"MMP-9; PBMC + 10 uM, no LPS, single replicates",2812.5 and 1599.0
same,MMP-9 MFI,"MMP-9; PBMC + 100 uM, no LPS, Mean",1161.3
same,MMP-9 MFI,"MMP-9; PBMC + 100 uM, no LPS, single replicates",1309.5 and 1013.0
same,MMP-9 MFI,"MMP-9; PBMC + LPS(5 ug/ml) + 0.001 uM, Mean",41.0
same,MMP-9 MFI,"MMP-9; PBMC + LPS(5 ug/ml) + 0.001 uM, single replicates",36.0 and 36.5 and 50.5
same,MMP-9 MFI,"MMP-9; PBMC + LPS(5 ug/ml) + 0.01 uM, Mean",35.8
same,MMP-9 MFI,"MMP-9; PBMC + LPS(5 ug/ml) + 0.01 uM, single replicates",37.5 and 36.5 and 33.5
same,MMP-9 MFI,"MMP-9; PBMC + LPS(5 ug/ml) + 0.1 uM, Mean",30.3
same,MMP-9 MFI,"MMP-9; PBMC + LPS(5 ug/ml) + 0.1 uM, single replicates",28.5 and 31.0 and 31.5
same,MMP-9 MFI,"MMP-9; PBMC + LPS(5 ug/ml) + 1 uM, Mean",38.5
same,MMP-9 MFI,"MMP-9; PBMC + LPS(5 ug/ml) + 1 uM, single replicates",36.5 and 37.5 and 41.5
same,MMP-9 MFI,"MMP-9; PBMC + LPS(5 ug/ml) + 10 uM, Mean",36.8
same,MMP-9 MFI,"MMP-9; PBMC + LPS(5 ug/ml) + 10 uM, single replicates",37.5 and 38.5 and 34.5
same,MMP-9 MFI,"MMP-9; PBMC + LPS(5 ug/ml) + 100 uM, Mean",27.7
same,MMP-9 MFI,"MMP-9; PBMC + LPS(5 ug/ml) + 100 uM, single replicates",28.0 and 28.5 and 26.5

# — US20230146455A1 (Yuyu Pharma, Inc., priority 2020, published 2023)
